Where a name gives a salt, the structure may show the parent alone.
Assay: Release of dorzolamide suspension from therapeutic devices, Example A
Conditions: 100 mg/mL suspension, measured for 120 days, all devices

## CCN[C@H]1C[C@H](C)S(=O)(=O)c2sc(S(N)(=O)=O)cc21 [Dorzolamide, dorzolamide Hydrochloride]
  constant drug release rate: 17 µg/day

From US10166142B2, “Small molecule delivery with implantable therapeutic device” (ForSight Vision4, Inc., priority 2011, dated 2019)
